According to publication doi:10.1101/181503:

Biological target: FLAG-ATGL (adipose triglyceride lipase) (not stated (human or mouse cDNA cloned))
Test: co-IP

B1: hypoxia-inducible gene 2 (HIG2), endogenous (protein, UniProt Q9Y5L2 1-63)
chain: MKHVLNLYLLGVVLTLLSIFVRVMESLEGLLESPSPGTSWTTRSQLANTEPTKGLPDHPSRSM
How did the binding turn out when B1 was run?
Its binding is “binds”.

No constants are given. Whether binding was seen depends on the method and setting. In cells and extracts the contact can be indirect. Binding can be weak; no strength is given.
